# Experimental data published in PubChem BioAssay AID2685 (National Center for Advancing Translational Sciences (NCATS), 2010).
# Some of the results follow. The main result of the screen is listed elsewhere. These columns were measured beside it and carry no call. The list favours compounds with an active or inconclusive main result. Words in brackets tell the shape of the fitted curve; partial curves, single points and poor fits give uncertain potencies.
# Assay: qHTS Assay for Lipid Storage Modulators in Drosophila S3 Cells;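 on cell number change: cells counted by Cell Tracker Red CMTPX staining in the red channel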
# Settings: BODIPY lipid droplet fluorescence, 18-24 h; for cell number change: measured here: cell count max response, cells fed with added oleic acid
# Method in brief: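 Laser-scanning cytometry quantifies lipid droplet accumulation (500–530 nm total intensity; droplet/cell object ratio) in oleic acid-fed (400 uM added) Drosophila S3 cells treated with a concentration series. 20 uM Triacsin C defined 100% inhibition.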
# [1] = measured here: lipid fluorescence (Fed channel) AC50, cells fed with added oleic acid
# [2] = measured here: cell number channel AC50, cells fed with added oleic acid
SMILES,cell number change,AC50 [1],AC50 [2]
NC(=O)c1cn(C2OC(CO)C(O)C2O)c2ncnc(N)c12 (stereo not given),-18.9%,"1.84 µM [falling, full curve]",–
Cc1oc(-c2cccs2)nc1CSCC(=O)N1CCC2(CC1)OCCO2,8.93%,"6.51 µM [rising, single point]",–
Fc1ccccc1CCNCc1cccc(Cl)c1Cl,-6.03%,–,–
COc1cc(CC2(CCc3ccncc3)C(=O)N(C)C(=O)N(C)C2=O)cc(OC)c1OC,17.1%,"0.00517 µM [rising, full curve, poor fit]",–
Cc1c(NP(=O)(C(C)(C)C)C(C)(C)C)c(=O)n(-c2ccccc2)n1C,-5.01%,"4.11 µM [falling, single point]",–
COc1ccc2c3c1OC1C(O)C=CC4C(C2)[N+](C)(C)CCC341 (stereo not given),-2.02%,"0.82 µM [falling, full curve, poor fit]",–
O=C1NC(=O)C(=Cc2cccc(OCCOc3ccccc3)c2)C(=O)N1,-2.78%,–,–
COc1ccc(NC(=O)c2cn(CCC#N)nc2-c2ccccc2)cc1,15.7%,"2.06 µM [rising, partial curve]",–
Cc1cc(=O)oc2c(C)c(OCC(=O)N3C[C@H]4C[C@@H](C3)c3cccc(=O)n3C4)ccc12,17.8%,–,–
CN1CC(C#N)C2(O)c3ccccc3CCC2C1 (stereo not given),4.69%,"29.1 µM [rising, single point]",–
CNC(C)Cc1ccccc1Sc1ccc(O)cc1 (stereo not given),–,"2.91 µM [falling, partial curve]",–
O=C(NCc1cccnc1)NC1CCCCC1,1.76%,"3.66 µM [falling, full curve]",–
COc1ccc(C(=O)OC2CC3CCC(C2)[N+]3(C)[O-])cc1OC (stereo not given),24.6%,"8.2 µM [rising, partial curve]",–
COC(=O)C(O)(c1ccc(NC(=O)c2ccco2)c(OC)c1)C(F)(F)F (stereo not given),2.21%,"6.51 µM [falling, single point]",–
O=c1[nH]c(=O)n(Cc2ccccc2)c(O)c1/C=N/Nc1c(F)c(F)c(F)c(F)c1F,2.94%,"3.26 µM [rising, single point]",–
COc1ccccc1-n1c(O)c(C=NCCCn2ccnc2)c(=O)[nH]c1=O,-13.9%,–,–
COc1ccc2c(c1)CC1(CN2C)C(=O)NC(=O)N(c2ccc(F)cc2)C1=O (stereo not given),4.06%,"5.8 µM [falling, single point]",–
CN(C)c1ccc(/C=C2/C(=O)NC(=O)N(Cc3ccco3)C2=O)cc1,-8.36%,"1.3 µM [falling, full curve, poor fit]",–
Cn1c(O)c(/C=C2\N=c3ccccc3=C2CCNC(=S)NC2CC2)c(=O)n(C)c1=O,-29%,"23.1 µM [falling, partial curve]",–

# Part of the list above, reduced to cell number change and AC50 [2]:
SMILES | cell number change | AC50 [2]
COc1cc(CC2(CCc3ccncc3)C(=O)N(C)C(=O)N(C)C2=O)cc(OC)c1OC | 17.1% | –
Cc1c(NP(=O)(C(C)(C)C)C(C)(C)C)c(=O)n(-c2ccccc2)n1C | -5.01% | –

# Later entries

SMILES,cell number change,AC50 [1],AC50 [2]
Cc1nccc2c1[nH]c1ccccc12,7.79%,"1.84 µM [rising, full curve, poor fit]",–
CC[n+]1c(/C=C/C=C/c2ccc(N(C)C)cc2)sc2ccccc21,-60.9%,"2.31 µM [falling, full curve]","1.16 µM [falling, full curve]"
CCN(CC)c1ccc(N=Cc2c(O)n(-c3ccccc3)c(=O)[nH]c2=O)cc1,37.1%,"4.61 µM [rising, partial curve]","0.82 µM [rising, partial curve, poor fit]"
BrCC(Br)C1CCC(Br)C(Br)C1 (stereo not given),-20.9%,"0.00411 µM [falling, full curve, poor fit]",–
CC(C)(C)n1cc(C(=O)c2ccc3ccccc3c2O)cn1,24.3%,"32.6 µM [rising, partial curve, poor fit]",–
Clc1ccccc1CN1CCN(c2ccccc2)CC1,-11.5%,"6.51 µM [falling, single point]",–
C=CCn1c(O)c(C(C)=NCCC2=CCCCC2)c(=O)[nH]c1=O,38.4%,–,"20.6 µM [rising, single point]"
O=C1CCN(C(=O)CCCn2c(=O)oc3ccccc32)CC1,-12.4%,"0.146 µM [falling, full curve, poor fit]",–
Nc1c(Cl)cc([N+](=O)[O-])cc1Cl,38.7%,"10.3 µM [rising, partial curve]","8.2 µM [rising, partial curve, poor fit]"
Cc1cc(NC(=O)COC(=O)c2c(C)nn(Cc3ccccc3)c2C)no1,-6.5%,"0.092 µM [rising, full curve, poor fit]",–
CCN1CCC2(CCNC2)C1 (stereo not given),19%,"29.1 µM [rising, single point]",–
O=C(COc1ccccc1)N1CCN(Cc2c[nH]c3ccccc23)CC1,-16.9%,–,–
O=C(CNC(=O)c1ccc(Cl)cc1)Nc1ccc(Br)cc1C(=O)c1ccccc1,-12%,–,"0.731 µM [rising, full curve]"
O=C(c1ccc(Cl)cc1)C1CCCN(Cc2cccc3ncccc23)C1 (stereo not given),-20.8%,"29.1 µM [falling, single point]",–
CC(C)(C)NC(=S)/N=C(\N)N[N+](=O)[O-],-41.1%,–,"29.1 µM [falling, single point]"
CCCc1nc2ccccc2c(=O)n1-c1cccc(OC)c1,4.02%,"6.51 µM [rising, single point]",–
COC(=O)CC1(Cc2ccccc2)C(=O)NC(=O)NC1=O,-21.6%,"23.1 µM [falling, partial curve]",–
CCCCC1(CCCC)C(=O)NC(=Nc2cccc(C)c2)NC1=O,-63.2%,"23.1 µM [falling, partial curve]","25.9 µM [falling, partial curve]"
CCOc1ccc(-n2c(O)c(/C=C3\C=Nc4ccccc43)c(=O)[nH]c2=O)cc1,485%,"18.4 µM [falling, partial curve]","29.1 µM [rising, single point]"
O=C(CCN1CCCCC1)Nc1ccc(Br)cc1C(=O)c1ccccc1,25.4%,"23.1 µM [rising, single point]",–

SMILES,cell number change,AC50 [1],AC50 [2]
COc1ccccc1N1CCN(Cc2ccc(Br)s2)CC1,–,"29.1 µM [rising, single point]","0.82 µM [falling, full curve]"
COC(=O)[C@]12OC[C@]34C([C@@H](O)[C@@H]1O)[C@]1(C)CC(=O)C(O)=C(C)[C@@H]1C[C@H]3OC(=O)[C@H](O)[C@@H]24 (stereo not given in full),-50%,"2.59 µM [falling, full curve]","0.231 µM [falling, full curve]"
CC1(C)N(O)C2CCCCC2N1O (stereo not given),7.13%,"6.51 µM [rising, partial curve]",–
COC(=O)C1=C(c2ccc(-c3ccccc3)c(F)c2)C[C@@H]2CC[C@H]1N2C(=O)N1CCc2cc(OC)c(OC)cc2C1,2.52%,"0.13 µM [rising, full curve, poor fit]",–
CCCCn1c(O)c(C(C)=NCCN2CCCCC2)c(=O)[nH]c1=O,6.21%,"4.61 µM [falling, full curve, poor fit]",–
COc1ccc(CCN(C)Cc2ccc(F)cc2F)cc1OC,–,–,"1.46 µM [rising, partial curve]"
Cc1[nH]c2ccccc2c1C(=O)CN1CC=C(c2ccccc2)CC1,15%,"9.2 µM [rising, single point]",–
O=P(OC1CCCCC1)(OC1CCCCC1)C(O)c1ccccc1 (stereo not given),–,–,"29.1 µM [rising, single point]"
COc1cc(C)c(CN2CC=C(c3ccc(F)cc3)CC2)cc1C,1.76%,"10.3 µM [rising, partial curve, poor fit]",–
Cc1ccc2c(c1)CC1(CN2C)C(=O)NC(=O)N(c2ccc(C)c(C)c2)C1=O (stereo not given),0.511%,"6.51 µM [falling, single point]",–
Cn1c2ccccc2c2cnn(CC(=O)N3CCC4(CC3)OCCO4)c(=O)c21,10.3%,–,–
Cc1ccc2c(c1)C1CN(C)CCC1N2C(=O)/C(C#N)=C/c1ccc2c(c1)OCO2 (stereo not given),-28%,"25.9 µM [falling, partial curve, poor fit]",–
N#C/C(N)=C(/N)C#N,3.16%,"0.0651 µM [rising, full curve]",–
Cn1c[n+](C)cc1C(O)c1ccccc1 (stereo not given),1.55%,"6.51 µM [rising, single point]",–
Cc1ccc2c(c1)C1CN(C)CCC1N2C(=O)c1ccc(Br)o1 (stereo not given),72.9%,"0.058 µM [rising, full curve, poor fit]","11.6 µM [rising, partial curve]"
CCOC(=O)c1c(C)n(Cc2ccc(F)cc2)c2ccc(O)cc12,-2.69%,"0.00517 µM [falling, full curve, poor fit]",–
CC1CN(O)C2CCc3c(no[n+]3[O-])C12O (stereo not given),–,–,"0.517 µM [rising, single point]"
COc1ccc(-n2c(/C=C/c3ccc4c(c3)OCO4)nc3ccccc3c2=O)cc1,38.2%,"0.651 µM [rising, full curve]","2.06 µM [rising, partial curve]"
CN(C)c1ccc(CN2CC=C(c3ccc(F)cc3)CC2)cc1,13.2%,"3.26 µM [falling, partial curve]","0.0326 µM [rising, full curve, poor fit]"
C=CCN1C(=O)NC(=O)/C(=C/c2ccc(OCC(=O)Nc3ccc(C)cc3)cc2)C1=O,24.4%,"8.2 µM [rising, partial curve, poor fit]",–
